Reference: PubChem BioAssay AID1159592 (NIAID, 2016)

Purpose: 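Which core TLR components make p65 move nuclear in R848-treated mouse macrophages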
Cell system: RAW264.7 macrophages from mouse bearing reporters for p65 (GFP) and the Tnf promoter (mCherry)
Reagents: single siRNA against mouse genes
Time to read-out: 48 to 72 hours after siRNA transfection
Treatment: R848 TLR ligand for 40 minutes before fixation; dose not given
Detection: 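Nuclear over cytoplasmic GFP-p65 signal imaged 40 minutes after R848, plate-normalised by median and MAD, given as robust z versus negative controls, mean of replicates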
Reading the numbers: NF-kB translocation z-score: higher = more p65 moved into the nucleus than in negative-control wells
Active means: 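Active when the replicate-mean z lies above 1.5 or below -1.5; the depositor also grades absolute z in steps of 1, 1.5, 2 and 2.5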
Calls: active = strong change, either direction; inactive = little change
The deposit covers 756 reagents; shown is a part drawn at random. 147 of all reagents (19%) count as active. 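Active covers both loss and gain of p65 entry; negative z means weaker NF-kB activation, positive means more nuclear p65.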 Reagents against one gene are numbered here. Reagent sequences are not shown. Not stated in the record: the amount of reagent.

| target | reagent | NF-kB translocation z-score, replicate mean | outcome |
| --- | --- | --- | --- |
| Tbkbp1 (TBK1 binding protein 1) | 1 | -0.166 | inactive |
| Tbkbp1 (TBK1 binding protein 1) | 2 | -0.533 | inactive |
| Tbkbp1 (TBK1 binding protein 1) | 3 | 1.68 | active |
| Tbkbp1 (TBK1 binding protein 1) | 4 | 0.145 | inactive |
| Tbkbp1 (TBK1 binding protein 1) | 5 | 0.175 | inactive |
| Tbkbp1 (TBK1 binding protein 1) | 6 | 0.41 | inactive |
| Rel (Rel proto-oncogene, NFKB subunit) | 1 | -0.417 | inactive |
| Rel (Rel proto-oncogene, NFKB subunit) | 2 | 0.396 | inactive |
| Rel (Rel proto-oncogene, NFKB subunit) | 3 | 2.03 | active |
| Rel (Rel proto-oncogene, NFKB subunit) | 4 | -0.677 | inactive |
| Rel (Rel proto-oncogene, NFKB subunit) | 5 | 1.09 | inactive |
| Rel (Rel proto-oncogene, NFKB subunit) | 6 | -0.155 | inactive |
| Il12a (interleukin 12a) | 1 | -0.477 | inactive |
| Il12a (interleukin 12a) | 2 | -0.143 | inactive |
| Il12a (interleukin 12a) | 3 | -0.789 | inactive |
| Il12a (interleukin 12a) | 4 | -0.71 | inactive |
| Il12a (interleukin 12a) | 5 | -1.09 | inactive |
| Il12a (interleukin 12a) | 6 | 0.0711 | inactive |
| Ikbke (inhibitor of kappaB kinase epsilon) | 1 | -0.00529 | inactive |
| Ikbke (inhibitor of kappaB kinase epsilon) | 2 | -0.247 | inactive |
| Ikbke (inhibitor of kappaB kinase epsilon) | 3 | -0.41 | inactive |
| Ikbke (inhibitor of kappaB kinase epsilon) | 4 | 0.0858 | inactive |
| Ikbke (inhibitor of kappaB kinase epsilon) | 5 | 0.326 | inactive |
| Ikbke (inhibitor of kappaB kinase epsilon) | 6 | -1.17 | inactive |
| Tlr9 (toll-like receptor 9) | 1 | -0.223 | inactive |
| Tlr9 (toll-like receptor 9) | 2 | -0.0503 | inactive |
| Tlr9 (toll-like receptor 9) | 3 | -0.617 | inactive |
| Tlr9 (toll-like receptor 9) | 4 | -0.427 | inactive |
| Tlr9 (toll-like receptor 9) | 5 | -1.03 | inactive |
| Tlr9 (toll-like receptor 9) | 6 | -1.32 | inactive |
| Irf3 (interferon regulatory factor 3) | 1 | -1.05 | inactive |
| Irf3 (interferon regulatory factor 3) | 2 | 1.77 | active |
| Irf3 (interferon regulatory factor 3) | 3 | -2.69 | active |
| Irf3 (interferon regulatory factor 3) | 4 | -0.617 | inactive |
| Irf3 (interferon regulatory factor 3) | 5 | 0.294 | inactive |
| Irf3 (interferon regulatory factor 3) | 6 | -0.188 | inactive |
| Cxcl9 (C-X-C motif chemokine ligand 9) | 1 | -0.467 | inactive |
| Cxcl9 (C-X-C motif chemokine ligand 9) | 2 | -1.77 | active |
| Cxcl9 (C-X-C motif chemokine ligand 9) | 3 | -0.624 | inactive |
| Cxcl9 (C-X-C motif chemokine ligand 9) | 4 | 0.225 | inactive |
| Cxcl9 (C-X-C motif chemokine ligand 9) | 5 | -0.209 | inactive |
| Cxcl9 (C-X-C motif chemokine ligand 9) | 6 | -0.0338 | inactive |
| Nfkbie | 1 | -0.793 | inactive |
| Nfkbie | 2 | -0.715 | inactive |
| Nfkbie | 3 | -0.974 | inactive |
| Nfkbie | 4 | -1.63 | active |
| Nfkbie | 5 | -1.42 | inactive |
| Nfkbie | 6 | -0.354 | inactive |

Records above whose target name starts with R or r:
| target | reagent | NF-kB translocation z-score, replicate mean | outcome |
| --- | --- | --- | --- |
| Rel (Rel proto-oncogene, NFKB subunit) | 1 | -0.417 | inactive |
| Rel (Rel proto-oncogene, NFKB subunit) | 2 | 0.396 | inactive |
| Rel (Rel proto-oncogene, NFKB subunit) | 3 | 2.03 | active |
| Rel (Rel proto-oncogene, NFKB subunit) | 4 | -0.677 | inactive |
| Rel (Rel proto-oncogene, NFKB subunit) | 5 | 1.09 | inactive |
| Rel (Rel proto-oncogene, NFKB subunit) | 6 | -0.155 | inactive |

Additional records follow:
| target | reagent | NF-kB translocation z-score, replicate mean | outcome |
| --- | --- | --- | --- |
| Crebbp (CREB binding protein) | 1 | 0.106 | inactive |
| Crebbp (CREB binding protein) | 2 | -2.25 | active |
| Crebbp (CREB binding protein) | 3 | -1.8 | active |
| Crebbp (CREB binding protein) | 4 | -0.722 | inactive |
| Crebbp (CREB binding protein) | 5 | -3.6 | active |
| Crebbp (CREB binding protein) | 6 | -1.21 | inactive |
| Egr1 (early growth response 1) | 1 | -0.622 | inactive |
| Egr1 (early growth response 1) | 2 | -0.669 | inactive |
| Egr1 (early growth response 1) | 3 | -0.667 | inactive |
| Egr1 (early growth response 1) | 4 | 0.174 | inactive |
| Egr1 (early growth response 1) | 5 | 0.675 | inactive |
| Egr1 (early growth response 1) | 6 | 0.0317 | inactive |
| Egr2 (early growth response 2) | 1 | -0.445 | inactive |
| Egr2 (early growth response 2) | 2 | -0.212 | inactive |
| Egr2 (early growth response 2) | 3 | -1.41 | inactive |
| Egr2 (early growth response 2) | 4 | -2.94 | active |
| Egr2 (early growth response 2) | 5 | -0.854 | inactive |
| Egr2 (early growth response 2) | 6 | -0.231 | inactive |
| Ets1 (Ets proto-oncogene 1, transcription factor) | 1 | 0.927 | inactive |
| Ets1 (Ets proto-oncogene 1, transcription factor) | 2 | 0.952 | inactive |
| Ets1 (Ets proto-oncogene 1, transcription factor) | 3 | -2.08 | active |
| Ets1 (Ets proto-oncogene 1, transcription factor) | 4 | 1.09 | inactive |
| Ets1 (Ets proto-oncogene 1, transcription factor) | 5 | 1.67 | active |
| Ets1 (Ets proto-oncogene 1, transcription factor) | 6 | 0.135 | inactive |
| Traf3 (TNF receptor-associated factor 3) | 1 | -0.034 | inactive |
| Traf3 (TNF receptor-associated factor 3) | 2 | -0.69 | inactive |
| Traf3 (TNF receptor-associated factor 3) | 3 | 0.486 | inactive |
| Traf3 (TNF receptor-associated factor 3) | 4 | -0.711 | inactive |
| Traf3 (TNF receptor-associated factor 3) | 5 | -1.58 | active |
| Traf3 (TNF receptor-associated factor 3) | 6 | 1.24 | inactive |
